Source: PubChem BioAssay AID540276 (National Center for Advancing Translational Sciences (NCATS), 2011)
Values joined by “and” are separate entries in the source; they are usually repeats but may differ in a detail not shown here. Equal values may be shown once. The campaign covered roughly 300,000 compounds. About 5,400 (1.8%) were called active. This list was built around the results that the source calls inconclusive (neither active nor inactive); the mix of calls is not that of the screen. Calls follow the shape of the full dose curve; tested in HEK293 cells. Where the call is inconclusive, the potency comes from a doubtful curve fit.
% is scaled to controls: 0 for no effect and ±100 for the full control effect; potency is read from the fitted curve at half-maximal effect.

Assay: qHTS for inhibitors of binding or entry into cells for Marburg Virus
Settings: Marburg virus pseudotyped entry inhibition, cell reporter; activity change, negative = inhibition: at 37.8 µM (top of the series) unless noted
In the case of `CC(=O)c1c(C)[nH]c(C(=O)Nc2ccc3c(c2)OCCO3)c1C`, the Potency is reported as inconclusive: 11.2 µM [inhibitor, partial curve, poor fit].
With `O=C1NC(=O)N2CCSC2(Cc2ccccc2)N1` (stereo unspecified) the “activity change, negative = inhibition” value was inactive: 0.352%.
For `CCOC(=O)CSCCOc1ccc(C=C2C(=O)NC(=O)NC2=O)cc1OC`, the “activity change, negative = inhibition” value was inactive: 6.04% [at 46.1 µM].
For `CC(C)n1nc(C(=O)Nc2nc3ccccc3[nH]2)c2ccccc2c1=O`, the Potency was inconclusive: 25.1 µM [inhibitor, single point].
For `CCOC(=O)CSc1ncc(-c2ccc([N+](=O)[O-])cc2)[nH]1`, the Potency was inconclusive: 11.2 µM [activator, partial curve].
In the case of `Cc1cc2c(cc1S(=O)(=O)NCc1ccccc1)NC(=O)CO2`, the “activity change, negative = inhibition” value is reported as inactive: -13.1% [at 46.1 µM].
For `N/C(Cc1cccc2ccccc12)=N\O`, the Potency was inconclusive: 5.62 µM [inhibitor, partial curve, poor fit].
In the case of `CCOc1ccccc1NC(=O)/C(C#N)=C/c1c(C)nn(-c2ccccc2)c1Cl`, the “activity change, negative = inhibition” value is reported as inactive: 1.65%.
With `Cc1cccc(N2C(=N)SCC2=O)c1C` the Potency was inconclusive: 4.47 µM [activator, full curve, poor fit].
For `Brc1ccc([C@@H]2CN3CCSC3=N2)cc1`, the Potency was inconclusive: 1.16 µM [activator, full curve, poor fit].
With `COc1cccc(CNC(=O)c2cc3c(-c4ccccc4F)nn(C)c3s2)c1` the “activity change, negative = inhibition” value was inactive: 1.06% [at 46.1 µM].
In the case of `Cc1nn(CCCC(=O)Nc2cccnc2)c(C)c1[N+](=O)[O-]`, the Potency is reported as inconclusive: 35.5 µM [activator, single point].
With `CC(C)CC(=O)NC(c1cccs1)c1ccc2cccnc2c1O` (stereo unspecified) the Potency was active: 10 µM.
With `O=C1c2ccccc2NC(c2cccs2)N1O` (stereo unspecified) the Potency was inconclusive: 15.8 µM [activator, partial curve, poor fit].
With `CC1(C)NC(C(=O)O)Cc2c1[nH]c1ccccc21` (stereo unspecified) the “activity change, negative = inhibition” value was inactive: 5.1% [at 46.1 µM].
With `N/C(=N\OC(=O)COc1ccc2ccccc2c1)c1ccccn1` the Potency was inconclusive: 32.6 µM [inhibitor, single point].
With `CCOC(=O)c1ccc(NC(=O)CN2CCN(CCN=CC3=C(O)CC(C)(C)CC3=O)CC2)cc1` the “activity change, negative = inhibition” value was inactive: 5.29% [at 46.1 µM].
For `CCCCn1c2nc3ccccc3nc2c2c(=O)n(C(C)CC)cnc21` (stereo unspecified), the Potency was inconclusive: 4.61 µM [inhibitor, single point].
With `CCOc1cc(/C=N/N=C(/N)c2nonc2N)cc(Br)c1OCc1ccc(Cl)cc1` the Potency was inconclusive: 14.6 µM [inhibitor, partial curve, poor fit].
In the case of `COc1ccc(-c2c(-c3ccc(OCC(=O)NN)cc3O)n[nH]c2C)cc1OC`, the Potency is reported as inconclusive: 1.78 µM [inhibitor, partial curve, poor fit].
In the case of `COc1cc(/C=C2\C(=O)N(CCC#N)N=C2C)ccc1OCC(=O)Nc1ccccc1`, the Potency is reported as inconclusive: 35.5 µM [inhibitor, single point].
With `O=C(Nc1ccc(C(F)(F)F)cc1)c1ccc2nc[nH]c2c1` the Potency was inconclusive: 35.5 µM [activator, single point].
In the case of `COc1ccc(NC(=S)NNC(=O)c2ccccc2OC(F)F)cc1`, the Potency is reported as inconclusive: 11.6 µM [inhibitor, partial curve].
In the case of `COc1ccccc1OCc1ccc(C(=O)Nc2ccncc2)o1`, the Potency is reported as inconclusive: 9.2 µM [inhibitor, partial curve, poor fit].
In the case of `O=C(NC(=S)NCCO)c1cn(-c2ccccc2)nc1-c1ccccc1`, the “activity change, negative = inhibition” value is reported as inactive: 18.8% [at 46.1 µM].
With `COc1cccc(-c2nnc(SCc3ccc(C#N)cc3)n2Cc2ccco2)c1` the Potency was inconclusive: 8.91 µM [inhibitor, single point].
With `COc1cc(C(=O)NNC(=O)CN2C(=O)NC(C)(c3ccc(C)cc3)C2=O)cc(OC)c1OC` (stereo unspecified) the Potency was inconclusive: 3.55 µM [inhibitor, single point].
In the case of `Cc1cc(C)cc(C(=O)Nc2cccc(NC(=O)c3ccco3)c2)c1`, the “activity change, negative = inhibition” value is reported as inactive: -18.6%.
With `NC(=O)c1cc(NC(=O)CCCc2nc3ccccc3s2)cc(C(N)=O)c1` the “activity change, negative = inhibition” value was inactive: -1.68% [at 46.1 µM].
With `COc1ccc2cc(CO)c(Cl)nc2c1` the “activity change, negative = inhibition” value was inactive: 5.84%.
In the case of `CCOc1ccccc1OCCC(=O)OCC(=O)Nc1c(C)cc(C)cc1C`, the “activity change, negative = inhibition” value is reported as inactive: 4.72%.
For `COc1cc(NC(=O)Cn2nc(C(F)(F)F)c3c2CCC3)cc(OC)c1OC`, the Potency was inconclusive: 35.5 µM [inhibitor, single point].
In the case of `O=C1c2ccccc2C(=O)N1CCc1csc(-c2ccccc2)n1`, the “activity change, negative = inhibition” value is reported as inactive: -21.6%.
In the case of `Clc1nc(-c2ccccc2)cc(-c2ccccc2)n1`, the Potency is reported as inconclusive: 11.2 µM [inhibitor, single point].
With `C=CCN(CC=C)C(=O)Nc1ccc2nc(C)sc2c1` the Potency was inconclusive: 2.24 µM [activator, full curve, poor fit].
For `CC1CC(C)CN(S(=O)(=O)c2ccc(C(=O)N3CCCC3)cc2)C1` (stereo unspecified), the “activity change, negative = inhibition” value was inactive: 13.3%.
For `Cc1ccccc1NC(=O)c1cccc(S(C)(=O)=O)c1`, the “activity change, negative = inhibition” value was inactive: 11.6% [at 46.1 µM].
With `Cc1ccc(C#N)c(SCc2nnc(-c3ccc(Cl)cc3)o2)n1` the Potency was active: 2.06 µM.
With `O=C(CSc1nnc(-c2cccnc2)n1Cc1ccco1)Nc1cccc(O)c1` the Potency was inconclusive: 0.891 µM [activator, single point].
In the case of `CCc1ccc(N(C(=O)Cn2nnc(-c3ccccc3)n2)C(C(=O)NC2CCCCC2)c2ccccn2)cc1` (stereo unspecified), the Potency is reported as inconclusive: 6.31 µM [inhibitor, single point].
With `O=C1OCC2=C1C(c1cccc(Cl)c1)CC(=O)N2c1ccc(C(F)(F)F)cc1` (stereo unspecified) the “activity change, negative = inhibition” value was inactive: -21.3% [at 46.1 µM].
In the case of `O=C(NCc1ccccc1)C(=O)Nc1nccs1`, the Potency is reported as inconclusive: 2.51 µM [activator, full curve, poor fit].
For `Cc1ccc(OCCC(=O)OCC(=O)Nc2ccc3[nH]c(=O)[nH]c3c2)cc1`, the “activity change, negative = inhibition” value was inactive: 0.236%.
With `CC1(C)C2C/C(=N\O)C(C)(/[N+]([O-])=C/c3cccc([N+](=O)[O-])c3)CC21` (stereo unspecified) the Potency was inconclusive: 35.5 µM [inhibitor, single point].
With `Cc1c(C(=O)N/N=C/c2ccc(O)c(Br)c2)sc(N)c1C#N` the Potency was inconclusive: 0.164 µM [inhibitor, full curve, poor fit].
In the case of `COc1ccc(-c2csc(Nc3ncccc3C)n2)cc1OC`, the “activity change, negative = inhibition” value is reported as inactive: 1.44%.
In the case of `CC1CN(C(=O)/C=C/c2ccc([N+](=O)[O-])s2)CC(C)O1` (stereo unspecified), the Potency is reported as active: 11.2 µM.
With `CC1CCCC(C)N1C(=O)c1ccccc1Nc1ccc(SC(F)F)cc1` (stereo unspecified) the Potency was active: 11.6 µM.
In the case of `CCOC(=O)c1c(NC(=O)CSc2ncn[nH]2)sc(C(=O)N(C)C)c1C`, the Potency is reported as inconclusive: 0.0891 µM [inhibitor, full curve, poor fit].
For `CCOC(=O)C1=C(C)C(CC(C)C)C(C)=N1` (stereo unspecified), the Potency was inconclusive: 17.8 µM [inhibitor, single point].
For `COc1ccc(CC(=O)Nc2c(C(=O)N3CCN(c4ccccc4)CC3)oc3ccccc23)cc1OC`, the Potency was inconclusive: 10 µM [inhibitor, partial curve, poor fit] and inconclusive: 22.4 µM [inhibitor, single point].
For `CC1=NOC(=O)/C1=C/c1ccc(-c2ccc(Cl)cc2)o1`, the “activity change, negative = inhibition” value was inactive: 0.075%.
For `Cc1cccc2sc(NC(=O)C3CCN(C(=O)c4ccco4)CC3)nc12`, the Potency was inconclusive: 35.5 µM [inhibitor, single point].
For `O=C(NCc1cccnc1)/C(=C/c1ccco1)NC(=O)c1ccccc1`, the Potency was inconclusive: 0.73 µM [inhibitor, partial curve, poor fit].
In the case of `O=C1c2ccccc2C(=O)C1c1ccc(Br)cc1`, the Potency is reported as inconclusive: 5.62 µM [activator, full curve, poor fit].
With `CN(C(=O)COc1ccccc1C(=O)NCCc1ccccc1)c1ccccc1` the Potency was inconclusive: 0.794 µM [activator, partial curve, poor fit].
In the case of `CNC(=O)/C(C#N)=C1/SC(Cc2ccc(F)cc2)C(=O)N1c1ccccc1` (stereo unspecified), the Potency is reported as inconclusive: 1.26 µM [inhibitor, partial curve, poor fit].
For `S=C(c1ccccc1)N1CCCC1`, the “activity change, negative = inhibition” value was inactive: 27%.
In the case of `CC1(C)CC(=O)C2=C(C1)N(c1ccc(Cl)cc1)C(=O)C2(O)C(F)(F)F` (stereo unspecified), the “activity change, negative = inhibition” value is reported as inactive: -22.9%.
In the case of `CC(C)(C)OC(=O)NCCc1nnc(SCC(=O)Nc2ccc(Br)cc2)o1`, the Potency is reported as inconclusive: 3.55 µM [activator, partial curve].
With `CCOc1ccccc1CSc1nc2ccccc2[nH]1` the “activity change, negative = inhibition” value was inactive: -2.43%.
For `COC(=O)c1c(NC(=O)CC2SC(N)=NC2=O)sc2c1CCC(C(C)(C)C)C2` (stereo unspecified), the Potency was inconclusive: 2.82 µM [activator, partial curve].
For `CCC(C)NC(=O)CCC(=O)NNc1nc2ccccc2c2nc(C)nn12` (stereo unspecified), the Potency was inconclusive: 2.82 µM [activator, single point].
With `COc1ccc(OC)c(-n2c(-c3ccc(C)cc3)n[nH]c2=S)c1` the Potency was inconclusive: 22.4 µM [inhibitor, single point].
For `CCOC(=O)c1ccc2nc(C)c(CC)c(Cl)c2c1`, the Potency was inconclusive: 10 µM [activator, single point].
For `COc1ccc(CN2C3CCCC2CC(NC(=O)Nc2ccccc2C)C3)cc1` (stereo unspecified), the Potency was inconclusive: 20.6 µM [inhibitor, partial curve, poor fit].
For `Cc1cc(C)c(NC(=O)CN(C)S(=O)(=O)c2ccc3c(c2)c(=O)n(C)c(=O)n3C)c(C)c1`, the “activity change, negative = inhibition” value was inactive: 4.69% [at 46.1 µM].
For `NC(=O)COC(=O)[C@H](Cc1c[nH]c2ccccc12)NC(=O)c1ccc(F)cc1`, the “activity change, negative = inhibition” value was inactive: 2% [at 46.1 µM].
With `O=C(NNC(=O)c1cccc2ccccc12)c1ccc(Br)cc1` the Potency was inconclusive: 17.8 µM [inhibitor, single point].
For `CN(C)S(=O)(=O)c1ccc(SCC(=O)Nc2ccc3c(c2)OCCO3)nc1`, the Potency was inconclusive: 2.51 µM [activator, full curve].
In the case of `Cc1ccc(C(=O)/C=C/c2cn(CC(O)CN3CCCCCC3)c3ccccc23)cc1` (stereo unspecified), the Potency is reported as inconclusive: 25.1 µM [inhibitor, single point].
